In article PMC10404246:
No constants are given. Whether binding was seen depends on the method and setting. Binding seen in cells or lysates may run through a third protein. Some binding calls cover weakened binding; strength is not graded here. Values belong to the binder of their own block, whether it stands above or below them.

Protein sequences, listed by entry. Tags and fused reporters are not part of them.
UniProt P15924: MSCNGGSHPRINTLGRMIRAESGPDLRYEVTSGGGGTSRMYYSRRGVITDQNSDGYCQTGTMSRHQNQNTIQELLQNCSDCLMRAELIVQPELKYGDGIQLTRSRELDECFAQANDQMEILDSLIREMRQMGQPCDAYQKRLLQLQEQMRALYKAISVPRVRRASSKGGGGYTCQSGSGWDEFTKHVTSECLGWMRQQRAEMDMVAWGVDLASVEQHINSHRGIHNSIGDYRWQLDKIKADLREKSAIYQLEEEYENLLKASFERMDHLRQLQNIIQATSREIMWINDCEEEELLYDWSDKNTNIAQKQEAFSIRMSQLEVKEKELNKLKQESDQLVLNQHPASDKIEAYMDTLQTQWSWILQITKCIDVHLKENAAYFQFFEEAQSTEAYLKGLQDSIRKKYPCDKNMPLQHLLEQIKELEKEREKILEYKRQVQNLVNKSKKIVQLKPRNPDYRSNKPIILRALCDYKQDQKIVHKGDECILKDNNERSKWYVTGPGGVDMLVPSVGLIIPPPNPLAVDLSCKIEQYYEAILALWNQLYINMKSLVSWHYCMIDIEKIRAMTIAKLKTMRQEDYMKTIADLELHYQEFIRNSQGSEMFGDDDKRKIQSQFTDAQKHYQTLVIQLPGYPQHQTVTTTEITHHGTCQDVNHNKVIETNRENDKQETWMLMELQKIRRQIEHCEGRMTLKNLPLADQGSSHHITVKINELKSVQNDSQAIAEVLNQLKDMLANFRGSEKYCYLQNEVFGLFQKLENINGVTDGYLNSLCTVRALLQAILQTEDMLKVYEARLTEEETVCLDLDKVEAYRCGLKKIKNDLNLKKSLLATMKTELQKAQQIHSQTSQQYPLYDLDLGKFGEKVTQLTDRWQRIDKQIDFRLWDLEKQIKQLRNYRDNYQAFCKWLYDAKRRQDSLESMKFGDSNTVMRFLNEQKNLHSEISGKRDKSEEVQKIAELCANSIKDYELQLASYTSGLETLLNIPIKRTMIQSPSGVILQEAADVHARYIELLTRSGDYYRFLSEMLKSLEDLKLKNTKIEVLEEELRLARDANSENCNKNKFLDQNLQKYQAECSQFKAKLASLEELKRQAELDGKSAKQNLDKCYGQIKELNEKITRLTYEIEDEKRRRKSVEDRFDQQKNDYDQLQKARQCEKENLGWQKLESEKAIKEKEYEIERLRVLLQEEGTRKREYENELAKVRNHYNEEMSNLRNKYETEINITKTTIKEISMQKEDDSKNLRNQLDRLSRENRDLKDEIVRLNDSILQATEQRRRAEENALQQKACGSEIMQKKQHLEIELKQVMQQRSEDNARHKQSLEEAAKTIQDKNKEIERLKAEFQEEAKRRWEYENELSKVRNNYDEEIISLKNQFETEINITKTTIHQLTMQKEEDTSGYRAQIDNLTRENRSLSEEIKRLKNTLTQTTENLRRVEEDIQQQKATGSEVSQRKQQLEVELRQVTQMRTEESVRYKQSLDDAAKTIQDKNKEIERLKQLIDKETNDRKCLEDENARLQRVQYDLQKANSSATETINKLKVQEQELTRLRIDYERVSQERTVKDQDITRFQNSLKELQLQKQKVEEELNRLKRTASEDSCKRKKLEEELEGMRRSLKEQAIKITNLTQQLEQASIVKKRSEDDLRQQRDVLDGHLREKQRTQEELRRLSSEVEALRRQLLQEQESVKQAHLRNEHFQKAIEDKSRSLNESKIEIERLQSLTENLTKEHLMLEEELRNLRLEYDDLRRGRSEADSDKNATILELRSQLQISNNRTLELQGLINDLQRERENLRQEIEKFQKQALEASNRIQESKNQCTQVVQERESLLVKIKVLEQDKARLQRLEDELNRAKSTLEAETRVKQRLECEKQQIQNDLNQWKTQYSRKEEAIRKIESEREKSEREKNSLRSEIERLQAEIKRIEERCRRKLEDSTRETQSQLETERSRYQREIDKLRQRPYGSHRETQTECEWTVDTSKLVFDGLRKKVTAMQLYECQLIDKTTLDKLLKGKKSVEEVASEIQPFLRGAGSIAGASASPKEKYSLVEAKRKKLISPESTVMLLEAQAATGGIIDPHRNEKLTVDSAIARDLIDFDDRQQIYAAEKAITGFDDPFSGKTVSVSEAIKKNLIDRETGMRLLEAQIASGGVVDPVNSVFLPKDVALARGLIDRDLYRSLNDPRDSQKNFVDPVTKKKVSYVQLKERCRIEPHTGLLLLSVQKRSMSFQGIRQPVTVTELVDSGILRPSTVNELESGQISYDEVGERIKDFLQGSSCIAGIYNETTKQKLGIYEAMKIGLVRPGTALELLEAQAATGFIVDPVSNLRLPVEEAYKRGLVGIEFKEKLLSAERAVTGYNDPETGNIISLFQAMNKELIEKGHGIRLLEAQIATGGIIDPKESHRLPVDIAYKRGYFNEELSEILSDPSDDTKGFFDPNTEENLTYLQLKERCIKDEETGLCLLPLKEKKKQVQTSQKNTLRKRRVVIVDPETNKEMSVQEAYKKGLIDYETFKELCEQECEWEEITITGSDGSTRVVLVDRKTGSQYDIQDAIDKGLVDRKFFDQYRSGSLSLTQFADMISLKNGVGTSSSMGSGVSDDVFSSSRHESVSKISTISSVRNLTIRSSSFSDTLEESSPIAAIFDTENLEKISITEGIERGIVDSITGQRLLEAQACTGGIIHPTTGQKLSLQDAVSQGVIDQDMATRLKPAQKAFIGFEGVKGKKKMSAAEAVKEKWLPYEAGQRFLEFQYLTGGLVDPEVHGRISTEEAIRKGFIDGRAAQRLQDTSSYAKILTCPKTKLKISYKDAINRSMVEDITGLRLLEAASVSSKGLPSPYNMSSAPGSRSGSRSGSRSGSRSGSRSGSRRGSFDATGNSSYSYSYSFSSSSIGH

Tests used:
[1] = molecular target: desmoplakin (human (endogenous in SCC9, NHEK and human skin)), P15924; test: co-IP; endogenous DP precipitated with antibodies to DP's C-terminus or N-terminus from SCC9 and NHEK lysates (NP40 buffer: 10 mM Tris-HCl pH 8, 100 mM NaCl, 0.2% NP40, 10% glycerol), overnight at 4 °C; blotted for Dsg3 or B55α; IgG control; conditions: remark: other sources report otherwise
[2] = molecular target: T1, PP2A regulatory subunit B55α (human (endogenous in SCC9, NHEK and human skin)) (UniProt P63151); test: co-IP; endogenous B55α precipitated with anti-B55α antibody conjugated to agarose from SCC9 and NHEK lysates (NP40 buffer), overnight at 4 °C; blotted for DP or Dsg3
T1 sequence: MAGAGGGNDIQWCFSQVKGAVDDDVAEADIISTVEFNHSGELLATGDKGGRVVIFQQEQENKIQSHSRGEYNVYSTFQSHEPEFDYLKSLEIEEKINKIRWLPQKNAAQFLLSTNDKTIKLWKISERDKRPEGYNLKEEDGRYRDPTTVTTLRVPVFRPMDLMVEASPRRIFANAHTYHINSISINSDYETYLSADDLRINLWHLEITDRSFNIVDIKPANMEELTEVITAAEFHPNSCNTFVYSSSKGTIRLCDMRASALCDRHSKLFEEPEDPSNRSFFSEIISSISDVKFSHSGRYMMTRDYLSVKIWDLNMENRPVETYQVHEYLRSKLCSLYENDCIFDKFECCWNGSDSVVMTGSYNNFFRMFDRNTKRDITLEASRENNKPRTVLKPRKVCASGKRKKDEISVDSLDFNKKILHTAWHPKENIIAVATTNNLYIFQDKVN

[3] = molecular target: desmoplakin (human (endogenous in SCC9, NHEK and human skin)) (UniProt P15924); test: co-IP; endogenous DP precipitated with antibodies to DP's C-terminus or N-terminus from SCC9 and NHEK lysates (NP40 buffer: 10 mM Tris-HCl pH 8, 100 mM NaCl, 0.2% NP40, 10% glycerol), overnight at 4 °C; blotted for Dsg3 or B55α; IgG control
[4] = molecular target: desmoplakin (human (endogenous in SCC9, NHEK and human skin)) (UniProt P15924); test: proximity ligation; fixed SCC9 cells with antibodies to B55α and DP; cells transfected with siRNA against Scramble control, B55α or DP
[5] = molecular target: desmoplakin (human (endogenous in SCC9, NHEK and human skin)) (UniProt P15924); test: proximity ligation; fixed human skin samples with antibodies to B55α and DP, compared with B55α antibody and IgG

- binding [1]: binds
B1: desmoglein 3, P32926 50-999 (protein)
chain: EWVKFAKPCREGEDNSKRNPIAKITSDYQATQKITYRISGVGIDQPPFGIFVVDKNTGDINITAIVDREETPSFLITCRALNAQGLDVEKPLILTVKILDINDNPPVFSQQIFMGEIEENSASNSLVMILNATDADEPNHLNSKIAFKIVSQEPAGTPMFLLSRNTGEVRTLTNSLDREQASSYRLVVSGADKDGEGLSTQCECNIKVKDVNDNFPMFRDSQYSARIEENILSSELLRFQVTDLDEEYTDNWLAVYFFTSGNEGNWFEIQTDPRTNEGILKVVKALDYEQLQSVKLSIAVKNKAEFHQSVISRYRVQSTPVTIQVINVREGIAFRPASKTFTVQKGISSKKLVDYILGTYQAIDEDTNKAASNVKYVMGRNDGGYLMIDSKTAEIKFVKNMNRDSTFIVNKTITAEVLAIDEYTGKTSTGTVYVRVPDFNDNCPTAVLEKDAVCSSSPSVVVSARTLNNRYTGPYTFALEDQPVKLPAVWSITTLNATSALLRAQEQIPPGVYHISLVLTDSQNNRCEMPRSLTLEVCQCDNRGICGTSYPTTSPGTRYGRPHSGRLGPAAIGLLLLGLLLLLLAPLLLLTCDCGAGSTGGVTGGFIPVPDGSEGTIHQWGIEGAHPEDKEITNICVPPVTANGADFMESSEVCTNTYARGTAVEGTSGMEMTTKLGAATESGGAAGFATGTVSGAASGFGAATGVGICSSGQSGTMRTRHSTGGTNKDYADGAISMNFLDSYFSQKAFACAEEDDGQEANDCLLIYDNEGADATGSPVGSVGCCSFIADDLDDSFLDSLGPKFKKLAEISLGVDGEGKEVQPPSKDSGYGIESCGHPIEVQQTGFVKCQTLSGSQGASALSTSGSVQPAVSIPDPLQHGNYLVTETYSASGSLVQPSTAGFDPLLTQNVIVTERVICPISSVPGNLAGPTQLRGSHTMLCTEDPCSRLI

- binding [2]: no binding
B2: desmoglein 3 (protein, UniProt P32926 50-999)
chain: EWVKFAKPCREGEDNSKRNPIAKITSDYQATQKITYRISGVGIDQPPFGIFVVDKNTGDINITAIVDREETPSFLITCRALNAQGLDVEKPLILTVKILDINDNPPVFSQQIFMGEIEENSASNSLVMILNATDADEPNHLNSKIAFKIVSQEPAGTPMFLLSRNTGEVRTLTNSLDREQASSYRLVVSGADKDGEGLSTQCECNIKVKDVNDNFPMFRDSQYSARIEENILSSELLRFQVTDLDEEYTDNWLAVYFFTSGNEGNWFEIQTDPRTNEGILKVVKALDYEQLQSVKLSIAVKNKAEFHQSVISRYRVQSTPVTIQVINVREGIAFRPASKTFTVQKGISSKKLVDYILGTYQAIDEDTNKAASNVKYVMGRNDGGYLMIDSKTAEIKFVKNMNRDSTFIVNKTITAEVLAIDEYTGKTSTGTVYVRVPDFNDNCPTAVLEKDAVCSSSPSVVVSARTLNNRYTGPYTFALEDQPVKLPAVWSITTLNATSALLRAQEQIPPGVYHISLVLTDSQNNRCEMPRSLTLEVCQCDNRGICGTSYPTTSPGTRYGRPHSGRLGPAAIGLLLLGLLLLLLAPLLLLTCDCGAGSTGGVTGGFIPVPDGSEGTIHQWGIEGAHPEDKEITNICVPPVTANGADFMESSEVCTNTYARGTAVEGTSGMEMTTKLGAATESGGAAGFATGTVSGAASGFGAATGVGICSSGQSGTMRTRHSTGGTNKDYADGAISMNFLDSYFSQKAFACAEEDDGQEANDCLLIYDNEGADATGSPVGSVGCCSFIADDLDDSFLDSLGPKFKKLAEISLGVDGEGKEVQPPSKDSGYGIESCGHPIEVQQTGFVKCQTLSGSQGASALSTSGSVQPAVSIPDPLQHGNYLVTETYSASGSLVQPSTAGFDPLLTQNVIVTERVICPISSVPGNLAGPTQLRGSHTMLCTEDPCSRLI

- binding [3]: binds
- binding [4]: binds
- binding [5]: binds
B3: PP2A regulatory subunit B55α (protein, UniProt P63151 1-447)
chain: MAGAGGGNDIQWCFSQVKGAVDDDVAEADIISTVEFNHSGELLATGDKGGRVVIFQQEQENKIQSHSRGEYNVYSTFQSHEPEFDYLKSLEIEEKINKIRWLPQKNAAQFLLSTNDKTIKLWKISERDKRPEGYNLKEEDGRYRDPTTVTTLRVPVFRPMDLMVEASPRRIFANAHTYHINSISINSDYETYLSADDLRINLWHLEITDRSFNIVDIKPANMEELTEVITAAEFHPNSCNTFVYSSSKGTIRLCDMRASALCDRHSKLFEEPEDPSNRSFFSEIISSISDVKFSHSGRYMMTRDYLSVKIWDLNMENRPVETYQVHEYLRSKLCSLYENDCIFDKFECCWNGSDSVVMTGSYNNFFRMFDRNTKRDITLEASRENNKPRTVLKPRKVCASGKRKKDEISVDSLDFNKKILHTAWHPKENIIAVATTNNLYIFQDKVN
